# Data: the supplement of paper PMC4604168 (melanoma cell lines)
# The list shows a part of the results. Many values rest on one well or one pass, so single values are uncertain.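 Cells were imaged in 1,536-well plates, and nuclei stained with an antibody against cleaved PARP were counted against all DNA-stained nuclei to give the apoptosis fraction. Screening doses were chosen to leave most cells alive, and resting and induced cleaved-PARP levels differ strongly between cell lines.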
# Columns and labels:
# Experiment in all cases: cleaved PARP positive nuclei fraction relative to DMSO control; melanoma cells; higher = more apoptosis
# Details in all cases: library dose: low library concentration; 72 h
# WM115 = tested on: WM115
# WM1716 = tested on: WM1716
# WM1745 = tested on: WM1745
# WM3526 = tested on: WM3526
# WM3619 = tested on: WM3619
# WM451Lu = tested on: WM451Lu
Compound,cleaved PARP positive nuclei fraction (WM115) [%],cleaved PARP positive nuclei fraction (WM1716) [%],cleaved PARP positive nuclei fraction (WM1745) [%],cleaved PARP positive nuclei fraction (WM3526) [%],cleaved PARP positive nuclei fraction (WM3619) [%],cleaved PARP positive nuclei fraction (WM451Lu) [%]
"O=c1[nH]nc(Sc2ncc([N+](=O)[O-])s2)n1-c1ccc2c(c1)OCCO2 + CC1(C)CCC(c2ccc(Cl)cc2)=C(CN2CCN(c3ccc(C(=O)NS(=O)(=O)c4ccc(N[C@H](CCN5CCOCC5)CSc5ccccc5)c(S(=O)(=O)C(F)(F)F)c4)cc3)CC2)C1 [ABT263] (first compound 0.2 µM, partner dose 0.4 µM)",353,47.6,540,46.8,146,55.6
"O=c1[nH]nc(Sc2ncc([N+](=O)[O-])s2)n1-c1ccc2c(c1)OCCO2 + COc1ccc2c(c1)CCC1C2CCC2(C)C(NCCCCCCN3C(=O)C=CC3=O)CCC12 [U73122] (first compound 0.2 µM, partner dose 0.4 µM)",113,57.7,94.4,161,121,57.9
"CC[C@]1(O)C[C@H]2CN(CCc3c([nH]c4ccccc34)[C@@](C(=O)OC)(c3cc4c(cc3OC)N(C=O)[C@H]3[C@@](O)(C(=O)OC)[C@H](OC(C)=O)[C@]5(CC)C=CCN6CC[C@]43[C@@H]65)C2)C1 [vincristine] + CO[C@@H]1[C@H](N(C)C(=O)c2ccccc2)C[C@H]2O[C@]1(C)n1c3ccccc3c3c4c(c5c6ccccc6n2c5c31)C(=O)NC4 [Midostaurin] (first compound 0.0001 µM, partner dose 0.08 µM)",689,927,92.3,149,121,66.1
"O=C(Nc1cc(C(F)(F)F)cc(C(F)(F)F)c1)c1cc(Cl)ccc1O + COc1cc2ncnc(Nc3ccc(Oc4ccccc4)cc3)c2cc1OC [SrcI1] (first compound 0.016 µM, partner dose 2 µM)",26.4,44.4,100,47,98.4,119
"O=C(Nc1cc(C(F)(F)F)cc(C(F)(F)F)c1)c1cc(Cl)ccc1O + NCC(=O)Nc1ccc(-n2nc(C(F)(F)F)cc2-c2ccc3c(ccc4ccccc43)c2)cc1 [OSU03012] (first compound 0.016 µM, partner dose 1 µM)",140,77.9,78.7,115,88.4,95.8
"Cc1ccc(Nc2nccc(N(C)c3ccc4c(C)n(C)nc4c3)n2)cc1S(N)(=O)=O [Pazopanib] + C#Cc1cccc(Nc2ncnc3cc(OCCOC)c(OCCOC)cc23)c1 [erlotinib] (first compound 0.4 µM, partner dose 0.8 µM)",171,86,104,85.1,83.8,92.8
"Cc1cn(-c2cc(NC(=O)c3ccc(C)c(Nc4nccc(-c5cccnc5)n4)c3)cc(C(F)(F)F)c2)cn1 [nilotinib] + C=C(c1ccc(C(=O)O)cc1)c1cc2c(cc1C)C(C)(C)CCC2(C)C [Bexarotene] (first compound 0.2 µM, partner dose 2 µM)",55.5,529,2390,58.7,111,74.7
"O=c1[nH]nc(Sc2ncc([N+](=O)[O-])s2)n1-c1ccc2c(c1)OCCO2 + CC1(C)NC(=O)N(c2ccc([N+](=O)[O-])c(C(F)(F)F)c2)C1=O [nilutamide] (first compound 0.2 µM, partner dose 1 µM)",149,168,94.1,46.6,68.4,92.9
"N#CC[C@H](C1CCCC1)n1cc(-c2ncnc3[nH]ccc23)cn1 [ruxolitinib] + O=C(Nc1ccccc1)c1cc([N+](=O)[O-])ccc1Cl [GW9662] (first compound 1 µM, partner dose 2 µM)",65.7,70.1,102,251,87.8,145
"Cc1ccc(Nc2nccc(N(C)c3ccc4c(C)n(C)nc4c3)n2)cc1S(N)(=O)=O [Pazopanib] + C[C@]1(O)C[C@@H](c2nc(-c3ccc4ccc(-c5ccccc5)nc4c3)c3c(N)nccn32)C1 [OSI906] (first compound 0.4 µM, partner dose 0.4 µM)",81.5,51.7,128,77.6,102,101
"CCCCCCCCCCCCCCCCCCOP(=O)([O-])OC1CC[N+](C)(C)CC1 [Perifosine] + O=C(/C=C/c1cccnc1)NCCCCC1CCN(C(=O)c2ccccc2)CC1 [FK866] (first compound 0.4 µM, partner dose 0.01 µM)",134,153,91.4,55.1,108,164
"COc1cc([C@@H]2c3cc4c(cc3[C@@H](O[C@@H]3O[C@@H]5CO[C@@H](C)O[C@H]5[C@H](O)[C@H]3O)[C@H]3COC(=O)[C@H]23)OCO4)cc(OC)c1O [etoposide] + COc1cc(Nc2ncc(F)c(Nc3ccc4c(n3)NC(=O)C(C)(C)O4)n2)cc(OC)c1OC [Tamatinib] (first compound 0.02 µM, partner dose 0.4 µM)",108,176,151,66.2,71.8,516
"CCCCCCCCCCCCCCCCCCOP(=O)([O-])OC1CC[N+](C)(C)CC1 [Perifosine] + Nc1ccn([C@@H]2O[C@H](CO)[C@@H](O)C2(F)F)c(=O)n1 [gemcitabine] (first compound 0.4 µM, partner dose 0.0004 µM)",170,81.1,126,291,78.9,89.1
"O=C(Nc1cc(C(F)(F)F)cc(C(F)(F)F)c1)c1cc(Cl)ccc1O + C[C@@H](N)c1ccc(C(=O)Nc2ccnc3[nH]ccc23)cc1 [RKI983] (first compound 0.016 µM, partner dose 0.4 µM)",51,2590,20.7,71,86.7,159
"CC[C@]1(O)C[C@H]2CN(CCc3c([nH]c4ccccc34)[C@@](C(=O)OC)(c3cc4c(cc3OC)N(C=O)[C@H]3[C@@](O)(C(=O)OC)[C@H](OC(C)=O)[C@]5(CC)C=CCN6CC[C@]43[C@@H]65)C2)C1 [vincristine] + CS(=O)(=O)c1ccc(C(=O)Nc2ccc(Cl)c(-c3ccccn3)c2)c(Cl)c1 [vismodegib] (first compound 0.0001 µM, partner dose 1 µM)",1530,377,105,23.6,168,118
"Cc1ccc(Nc2nccc(N(C)c3ccc4c(C)n(C)nc4c3)n2)cc1S(N)(=O)=O [Pazopanib] + CCCCCCCCCCCC1=C(O)C(=O)C=C(O)C1=O [Embelin] (first compound 0.4 µM, partner dose 1.2 µM)",348,213,86,85.7,102,68.3
"N#CC[C@H](C1CCCC1)n1cc(-c2ncnc3[nH]ccc23)cn1 [ruxolitinib] + CCc1ccc(CCOc2ccc(CC3SC(=O)NC3=O)cc2)nc1 [pioglitazone] (first compound 1 µM, partner dose 2 µM)",131,447,95.1,38.5,102,68.5
"N#CC[C@H](C1CCCC1)n1cc(-c2ncnc3[nH]ccc23)cn1 [ruxolitinib] + Cc1nc(Nc2ncc(C(=O)Nc3c(C)cccc3Cl)s2)cc(N2CCN(CCO)CC2)n1 [dasatanib] (first compound 1 µM, partner dose 0.004 µM)",234,77.4,144,86.9,92.6,100
"Cc1ccc(Nc2nccc(N(C)c3ccc4c(C)n(C)nc4c3)n2)cc1S(N)(=O)=O [Pazopanib] + C[C@@H]1CCN(C(=O)CC#N)C[C@@H]1N(C)c1ncnc2[nH]ccc12 [CP690550] (first compound 0.4 µM, partner dose 1 µM)",74.7,55.9,160,300,94,66.6
"Cc1ccc(Nc2nccc(N(C)c3ccc4c(C)n(C)nc4c3)n2)cc1S(N)(=O)=O [Pazopanib] + COc1ccc(C2=N[C@@H](c3ccc(Cl)cc3)[C@@H](c3ccc(Cl)cc3)N2C(=O)N2CCNC(=O)C2)c(OC(C)C)c1 [Nutlin-3] (first compound 0.4 µM, partner dose 0.1 µM)",64.3,169,106,36.6,112,33.8
"Cc1cn(-c2cc(NC(=O)c3ccc(C)c(Nc4nccc(-c5cccnc5)n4)c3)cc(C(F)(F)F)c2)cn1 [nilotinib] + CS(=O)(=O)CCNCc1ccc(-c2ccc3ncnc(Nc4ccc(OCc5cccc(F)c5)c(Cl)c4)c3c2)o1 [lapatinib] (first compound 0.2 µM, partner dose 0.8 µM)",69.1,38.5,108,41.2,68.5,168
"Cc1ccc(Nc2nccc(N(C)c3ccc4c(C)n(C)nc4c3)n2)cc1S(N)(=O)=O [Pazopanib] + Cc1nc(Nc2ncc(C(=O)Nc3c(C)cccc3Cl)s2)cc(N2CCN(CCO)CC2)n1 [dasatanib] (first compound 0.4 µM, partner dose 0.004 µM)",65.2,171,134,50.4,127,116
"Cc1cc(Nc2cc(N3CCN(C)CC3)nc(Sc3ccc(NC(=O)C4CC4)cc3)n2)n[nH]1 [Tozasertib] + O=C1NC(=O)/C(=C/c2ccc(-c3ccc(F)cc3O)o2)S1 [AS252424] (first compound 0.006 µM, partner dose 1 µM)",107,164,106,90.7,117,219
"CCCCCCCCCCCCCCCCCCOP(=O)([O-])OC1CC[N+](C)(C)CC1 [Perifosine] + COC(=O)c1sccc1S(=O)(=O)Nc1ccc(Nc2ccccc2)cc1OC [GSK0660] (first compound 0.4 µM, partner dose 1 µM)",48.7,100,90.6,73.3,88,132

# As a short view, part of the list above:
Compound,cleaved PARP positive nuclei fraction (WM115) [%],cleaved PARP positive nuclei fraction (WM1716) [%],cleaved PARP positive nuclei fraction (WM1745) [%],cleaved PARP positive nuclei fraction (WM3526) [%],cleaved PARP positive nuclei fraction (WM3619) [%],cleaved PARP positive nuclei fraction (WM451Lu) [%]
"O=c1[nH]nc(Sc2ncc([N+](=O)[O-])s2)n1-c1ccc2c(c1)OCCO2 + CC1(C)NC(=O)N(c2ccc([N+](=O)[O-])c(C(F)(F)F)c2)C1=O [nilutamide] (first compound 0.2 µM, partner dose 1 µM)",149,168,94.1,46.6,68.4,92.9
"N#CC[C@H](C1CCCC1)n1cc(-c2ncnc3[nH]ccc23)cn1 [ruxolitinib] + O=C(Nc1ccccc1)c1cc([N+](=O)[O-])ccc1Cl [GW9662] (first compound 1 µM, partner dose 2 µM)",65.7,70.1,102,251,87.8,145
"Cc1ccc(Nc2nccc(N(C)c3ccc4c(C)n(C)nc4c3)n2)cc1S(N)(=O)=O [Pazopanib] + C[C@]1(O)C[C@@H](c2nc(-c3ccc4ccc(-c5ccccc5)nc4c3)c3c(N)nccn32)C1 [OSI906] (first compound 0.4 µM, partner dose 0.4 µM)",81.5,51.7,128,77.6,102,101
"CCCCCCCCCCCCCCCCCCOP(=O)([O-])OC1CC[N+](C)(C)CC1 [Perifosine] + O=C(/C=C/c1cccnc1)NCCCCC1CCN(C(=O)c2ccccc2)CC1 [FK866] (first compound 0.4 µM, partner dose 0.01 µM)",134,153,91.4,55.1,108,164
"COc1cc([C@@H]2c3cc4c(cc3[C@@H](O[C@@H]3O[C@@H]5CO[C@@H](C)O[C@H]5[C@H](O)[C@H]3O)[C@H]3COC(=O)[C@H]23)OCO4)cc(OC)c1O [etoposide] + COc1cc(Nc2ncc(F)c(Nc3ccc4c(n3)NC(=O)C(C)(C)O4)n2)cc(OC)c1OC [Tamatinib] (first compound 0.02 µM, partner dose 0.4 µM)",108,176,151,66.2,71.8,516
